Some results were stated once for a whole list of compounds, not compound by compound. At least one structure is not confirmed: it was looked up by name or label, or the drawing left a doubt.
Tested on: TNF production in the HL-60 cell line
Assay: TNF production in PMA-stimulated HL-60 cells (ELISA)
Format: cell-based, human
Settings: control drug

CC(=O)CCCCn1c(=O)c2c(ncn2C)n(C)c1=O [pentoxaphyllin]
TNF production: less than 5 pg/ml

— patent US20030175777A1, “Eleutherosides as adjuncts for vaccines and immune modulation” (priority 2002, published 2003)
